Experimental findings from publication PMC3230587 are described below.

One assay concerns the target T1, FLAG-RNH1 (human) (UniProt P13489).
T1 sequence: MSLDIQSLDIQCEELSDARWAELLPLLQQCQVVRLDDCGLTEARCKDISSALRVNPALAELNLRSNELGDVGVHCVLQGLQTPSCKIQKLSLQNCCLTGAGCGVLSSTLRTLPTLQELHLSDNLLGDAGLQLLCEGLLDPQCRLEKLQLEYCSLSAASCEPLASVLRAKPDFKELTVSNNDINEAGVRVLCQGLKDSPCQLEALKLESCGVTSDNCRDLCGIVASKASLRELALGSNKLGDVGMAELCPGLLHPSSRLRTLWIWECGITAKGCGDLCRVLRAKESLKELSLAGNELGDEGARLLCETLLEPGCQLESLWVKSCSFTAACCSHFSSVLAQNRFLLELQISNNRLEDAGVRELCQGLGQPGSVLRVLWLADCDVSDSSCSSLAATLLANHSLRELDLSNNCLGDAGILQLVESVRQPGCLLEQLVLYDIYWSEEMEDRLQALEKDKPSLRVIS
The assay can be described thus: co-IP; lysates of transfected 293T cells in IP buffer (150 mM NaCl, 25 mM HEPES-KOH pH 7.5, 0.5% Triton X-100), anti-FLAG M2 affinity agarose 2 hr at 4 C, four washes, immunoblot; for FLAG-RNH1 with or without overexpressed PTEN. On the technique in general: Immunoblotting shows a protein as a band on a membrane.

In a further assay the target is T2, Drosha-FLAG (Drosha-WT) (UniProt Q9NRR4).
T2 sequence: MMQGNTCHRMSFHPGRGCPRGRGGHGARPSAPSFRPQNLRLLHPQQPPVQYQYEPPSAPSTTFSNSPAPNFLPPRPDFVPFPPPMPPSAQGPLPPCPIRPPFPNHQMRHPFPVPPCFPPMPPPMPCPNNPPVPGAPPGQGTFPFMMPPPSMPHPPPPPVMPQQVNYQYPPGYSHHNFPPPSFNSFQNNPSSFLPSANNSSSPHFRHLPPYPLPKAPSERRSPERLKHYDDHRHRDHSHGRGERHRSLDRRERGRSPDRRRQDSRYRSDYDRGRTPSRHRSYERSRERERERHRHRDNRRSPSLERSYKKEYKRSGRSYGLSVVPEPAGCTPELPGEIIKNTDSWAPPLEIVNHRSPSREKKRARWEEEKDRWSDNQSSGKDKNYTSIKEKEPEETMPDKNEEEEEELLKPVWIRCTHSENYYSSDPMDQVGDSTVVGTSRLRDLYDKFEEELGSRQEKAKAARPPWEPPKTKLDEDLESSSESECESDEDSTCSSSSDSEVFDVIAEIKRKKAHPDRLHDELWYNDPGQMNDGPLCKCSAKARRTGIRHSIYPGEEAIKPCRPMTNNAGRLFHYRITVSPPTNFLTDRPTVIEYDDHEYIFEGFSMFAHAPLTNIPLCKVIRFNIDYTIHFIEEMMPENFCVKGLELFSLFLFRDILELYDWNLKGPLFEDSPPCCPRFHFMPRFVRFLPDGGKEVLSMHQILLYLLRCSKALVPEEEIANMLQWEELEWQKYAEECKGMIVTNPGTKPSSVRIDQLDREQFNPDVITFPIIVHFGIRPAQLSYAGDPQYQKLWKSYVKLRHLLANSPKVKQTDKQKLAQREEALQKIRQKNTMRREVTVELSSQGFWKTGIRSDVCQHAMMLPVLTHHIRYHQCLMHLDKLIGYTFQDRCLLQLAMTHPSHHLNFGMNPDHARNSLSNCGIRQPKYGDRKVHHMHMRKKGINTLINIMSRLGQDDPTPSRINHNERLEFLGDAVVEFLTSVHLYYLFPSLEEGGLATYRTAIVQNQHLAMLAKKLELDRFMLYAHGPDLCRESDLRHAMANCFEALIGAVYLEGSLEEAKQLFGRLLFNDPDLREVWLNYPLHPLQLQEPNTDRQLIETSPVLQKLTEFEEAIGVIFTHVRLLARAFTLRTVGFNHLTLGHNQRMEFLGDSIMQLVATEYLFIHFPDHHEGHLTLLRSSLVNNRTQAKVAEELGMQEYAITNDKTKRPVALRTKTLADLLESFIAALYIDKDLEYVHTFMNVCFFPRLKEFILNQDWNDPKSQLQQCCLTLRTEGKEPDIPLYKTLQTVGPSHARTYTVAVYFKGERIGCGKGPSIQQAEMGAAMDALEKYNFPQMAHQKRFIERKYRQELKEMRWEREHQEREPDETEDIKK
Described as above.

No constants are given. Whether binding was seen depends on the method and setting. In cells and extracts the contact can be indirect. Some binding calls cover weakened binding; strength is not graded here. Sequences can lack the tags named with a protein.

B1: Drosha, endogenous (enzyme, UniProt Q9NRR4 1-1374)
chain: T2 sequence
Consider B1, for which the binding result in the assay with FLAG-RNH1 (human) is on record as “binds”.

B2: hemagglutinin (HA)-tagged RNH1 (ribonuclease/angiogenin inhibitor 1) (protein, UniProt P13489 1-461)
chain: T1 sequence
In the case of B2, the binding entry with Drosha-FLAG (Drosha-WT) is recorded as “binds”.
